Results published in paper PMC11965403.
No constants are given. Whether binding was seen depends on the method and setting. In cells and extracts the contact can be indirect.

Protein sequences, listed by entry. Tags and fused reporters are not part of them. Lines headed by an entry give the natural chain unless they say otherwise; changes in a name come on top.
UniProt Q86U44: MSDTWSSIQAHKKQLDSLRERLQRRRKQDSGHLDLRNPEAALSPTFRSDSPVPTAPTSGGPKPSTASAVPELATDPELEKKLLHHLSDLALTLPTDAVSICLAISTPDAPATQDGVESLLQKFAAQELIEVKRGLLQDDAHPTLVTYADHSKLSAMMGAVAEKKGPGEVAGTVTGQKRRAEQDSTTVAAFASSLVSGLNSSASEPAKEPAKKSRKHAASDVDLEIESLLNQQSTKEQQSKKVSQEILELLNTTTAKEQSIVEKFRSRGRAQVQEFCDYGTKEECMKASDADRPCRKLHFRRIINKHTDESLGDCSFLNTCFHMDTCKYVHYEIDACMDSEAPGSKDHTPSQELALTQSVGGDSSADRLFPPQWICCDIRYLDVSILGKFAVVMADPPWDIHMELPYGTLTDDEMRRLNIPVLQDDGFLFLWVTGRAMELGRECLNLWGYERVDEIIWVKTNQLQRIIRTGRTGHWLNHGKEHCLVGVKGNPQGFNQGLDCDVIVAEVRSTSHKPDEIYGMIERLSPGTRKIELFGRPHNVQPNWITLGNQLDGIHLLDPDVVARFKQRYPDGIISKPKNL
UniProt P19474: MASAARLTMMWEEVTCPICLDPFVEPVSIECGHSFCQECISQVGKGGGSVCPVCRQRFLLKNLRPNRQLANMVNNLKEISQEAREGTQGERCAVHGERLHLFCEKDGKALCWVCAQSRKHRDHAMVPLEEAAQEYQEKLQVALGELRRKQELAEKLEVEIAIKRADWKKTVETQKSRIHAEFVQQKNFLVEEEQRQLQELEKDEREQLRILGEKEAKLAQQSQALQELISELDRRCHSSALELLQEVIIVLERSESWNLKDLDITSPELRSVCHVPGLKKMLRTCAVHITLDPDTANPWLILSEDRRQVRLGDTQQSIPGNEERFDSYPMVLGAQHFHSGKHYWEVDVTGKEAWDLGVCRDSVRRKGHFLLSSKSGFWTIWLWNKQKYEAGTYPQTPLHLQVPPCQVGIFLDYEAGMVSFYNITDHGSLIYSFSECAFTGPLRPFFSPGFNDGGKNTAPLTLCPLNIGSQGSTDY

Biological target: Flag-tagged METTL3 (Methyltransferase like 3) (human) (UniProt Q86U44)
Experiment: co-IP; Flag-METTL3 with His-TRIM21 domain-deletion mutants; IP with anti-Flag antibody; cell line not stated

binding: no binding
Substance: His-TRIM21 domain-deletion mutant lacking the coiled-coil domain (from UniProt P19474) (enzyme)
